Among all 350,000 compounds or so, about 6,000 (1.7%) were called active. Inconclusive means that the source gave no clear call. Such entries were picked first, then a sample of the others. Rule as the data show it: active = CPE inhibition above about 20% (passing the limit was not always enough); inconclusive = no clear call, values can overlap the other calls; tested in BHK-21 cells.
Test: protection of cells from dengue 2 killing – plate reader, single concentration, primary screen (AID 651640);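 also: 0% = median of neutral control wells and 100% = median of positive control wells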
Settings: DENV2-infected cells, cytopathic effect rescue, at 9.99 µM, stronger effect = higher value

SMILES | CPE inhibition
CC(C)(C)NC(=O)C(=O)NN=C1CCCCCCC1 | inconclusive: 23.4%
C[C@H]1CN([C@@H](C)CO)C(=O)c2cccc(NC(=O)NC3CCCCC3)c2O[C@H]1CN(C)Cc1ccc(Oc2ccccc2)cc1 | inconclusive: 20.9%
CC(C)C(C)NC(=O)CSc1ccc(S(=O)(=O)N2CCOCC2)cn1 (stereo not given) | inactive: 4.2%
CS(=O)(=O)N1[C@@H](CO)[C@@H](c2ccccc2)C12CN(Cc1cc(F)ccc1F)C2 | active: 40.1%
COCCNC(=O)C[C@H]1C[C@@H]2c3cc(NS(=O)(=O)c4ccccc4)ccc3O[C@@H]2[C@@H](CO)O1 | inactive: 16.3%
COc1ccccc1NS(=O)(=O)c1cccc(N2CC(O)=C(c3ccccc3)C2=N)c1 | inconclusive: 20%
Cc1ccc(OCC(=O)Nc2ccc(S(=O)(=O)N3CCOCC3)cc2)c([N+](=O)[O-])n1 | inconclusive: 45.9%
CN1/C(=C/c2cccc[n+]2CCO)Sc2ccccc21 | inconclusive: 21.3%
Cc1cccc(C)c1NC(=O)C1CCCN1S(=O)(=O)c1ccccc1 (stereo not given) | inconclusive: 46.6%
CO[C@H]1CN(C)C(=O)c2cc(NS(=O)(=O)c3c(C)noc3C)ccc2OC[C@@H](C)NC[C@H]1C | inconclusive: 24.3%
Cc1cc(Br)ccc1NC(=O)CN(C)C(=O)c1ccc(-n2cncn2)c([N+](=O)[O-])c1 | inconclusive: 50.2%
COc1ccc2oc(C(=O)OCC(=O)N3C(C)CCCC3C)c(C)c2c1 (stereo not given) | inconclusive: 29%
C/C(=N\NC(=O)c1nnn(-c2nonc2N)c1-c1ccc(Cl)c(Cl)c1)c1ccncc1 | inconclusive: 22.6%
CC(C)C[C@@H](CN)NC(=O)c1nc[nH]c1C(=O)N[C@@H](CC(C)C)C(=O)CNC[C@H](C)NC(=O)c1nc[nH]c1C(=O)N[C@@H](CC(=O)O)C(=O)O | inconclusive: 45.3%
Cc1ccc(S(=O)(=O)Nc2ccc3c(c2)C(=O)N([C@H](C)CO)C[C@H](C)[C@@H](CN(C)C)OCCCC[C@@H](C)O3)cc1 | inconclusive: 50.7%
O=C(O)c1cc(-c2ccc(/C=C3\NC(=O)N(c4ccccc4)C3=O)o2)ccc1Cl | inactive: -5.24%
Cc1cc(C)nc(NS(=O)(=O)c2ccc(N3Cc4ccccc4C3=O)cc2)n1 | inconclusive: 25.2%
CCCCCn1c(CN2CC(C)OC(C)C2)nc2c1c(=O)n(C)c(=O)n2C (stereo not given) | inconclusive: 39.2%
O=[N+]([O-])c1cc([N+](=O)[O-])c(Oc2ccc(F)cc2)cc1NN1CCCCC1 | inactive: 0.247%
CC(C)C#Cc1cnc2c(c1)C(=O)N([C@H](C)CO)C[C@H](C)[C@H](CN(C)C(=O)c1ccc3c(c1)OCO3)O2 | inconclusive: 20.6%
CN1CCN(C(=O)C[C@@H]2C[C@@H]3c4cc(NC(=O)NC5CCCCC5)ccc4O[C@@H]3[C@@H](CO)O2)CC1 | active: 28.7%
CSc1nc2ccccc2n1CC(=O)Nc1ccc(C)c(C)c1 | inconclusive: 36.3%
CCOC(=O)Cn1nc(NC(=O)COc2ccc(F)cc2)cc1C | inconclusive: 40.9%

Quoted from the listing.
`Cc1cc(Br)ccc1NC(=O)CN(C)C(=O)c1ccc(-n2cncn2)c([N+](=O)[O-])c1` | CPE inhibition: inconclusive: 50.2%
`C/C(=N\NC(=O)c1nnn(-c2nonc2N)c1-c1ccc(Cl)c(Cl)c1)c1ccncc1` | CPE inhibition: inconclusive: 22.6%
`CCCCCn1c(CN2CC(C)OC(C)C2)nc2c1c(=O)n(C)c(=O)n2C` (stereo not given) | CPE inhibition: inconclusive: 39.2%

Later entries

SMILES | CPE inhibition
CCc1c(C)nc2c(Br)cccc2c1SCCC#N | inactive: -6.78%
O=C(N[C@H]1C/C=C\C[C@@H](CC(=O)N(CCO)Cc2ccccc2)C(=O)NC[C@H](c2ccccc2)OC1=O)OCC1c2ccccc2-c2ccccc21 | inconclusive: 67.5%
Cc1cccc(C(=O)N2CCc3ccccc3C2)c1[N+](=O)[O-] | inconclusive: 24%
CCC(=O)Nc1ccc2c(c1)C(=O)N(C)C[C@H](OC)[C@H](C)CN(CC1CCCCC1)[C@H](C)CO2 | inactive: -0.738%
CCn1c(=O)n(CC)c2cc(N3CCCC3)c(NC(=O)c3ccc(C)cc3)cc21 | active: 36%
COc1ccc(S(=O)(=O)Nc2ccc3c(c2)C(=O)N([C@@H](C)CO)C[C@@H](C)[C@@H](CN(C)S(=O)(=O)c2ccc(Cl)cc2)OCCCC[C@H](C)O3)cc1 | active: 35.4%
CC(C)Cc1ccc(CN2CCCC(NC(=O)CCN3CCCO3)C2)cc1 (stereo not given) | inconclusive: 21.7%
CNC(=O)C[C@H]1CC[C@@H]2[C@H](COc3ccc(NC(=O)Nc4cccc(C)c4)cc3C(=O)N2C)O1 | inconclusive: 33.9%
COc1ccc(NC(=O)C2CCN(C(=O)Nc3ccccc3)CC2)cc1S(=O)(=O)N(C)C | inconclusive: 31.4%
Clc1ccc(-c2nnc(COc3ncnc4sccc34)o2)cc1 | inconclusive: 20.7%
O=C(Nc1nccs1)[C@@H]1[C@@H](CO)[C@@H]2Cn3c(ccc(-c4cccnc4)c3=O)[C@@H]2N1CC1CC1 | inactive: -4.43%
COc1ccc(S(=O)(=O)Nc2ccc3c(c2)C(=O)N([C@H](C)CO)C[C@@H](C)[C@@H](CN(C)Cc2ccc(C(=O)O)cc2)OCCCC[C@@H](C)O3)cc1 | inactive: -8.47%
CC(C)C(=O)Nc1nnc(S(=O)(=O)N2CCc3ccccc32)s1 | active: 107%
Cc1nnc(SCC(=O)N(C2CCCCC2)C2CCS(=O)(=O)C2)n1N (stereo not given) | active: 34.9%
CNC[C@@H]1OCCCC[C@H](C)Oc2ccc(NC(=O)NC3CCCCC3)cc2C(=O)N([C@@H](C)CO)C[C@@H]1C | inconclusive: 84.5%
O=C(O)CC/C(=N\NC(=O)CNC(=O)/C=C/c1ccccc1)c1ccccc1 | inconclusive: 34.5%
Cc1noc(C)c1NC(=O)N(C)C[C@H]1Oc2ccc(NC(=O)C3CCCCC3)cc2C(=O)N([C@H](C)CO)C[C@@H]1C | inconclusive: 78.3%
O=C1CN(O)C=C2N=c3ccccc3=C2N1c1ccc([N+](=O)[O-])cc1 | inactive: -3.21%
CC(C(=O)Nc1ccc(F)cc1Cl)N(C)CCOc1ccccc1 (stereo not given) | inconclusive: 33.7%
COCC(=O)N1CC2(CN(Cc3cccnc3)C2)c2c(n(C)c3cc(OC)ccc23)[C@H]1CO | inactive: 8.52%
C[C@H]1CN([C@@H](C)CO)C(=O)Cc2cc(NC(=O)CCCN(C)C)ccc2O[C@@H]1CN(C)S(=O)(=O)c1cccs1 | inconclusive: 49%
Cc1ccc(-c2csc(NC(=O)c3ccc(S(=O)(=O)N4CCc5ccccc54)cc3)n2)cc1 | active: 25.4%

— PubChem BioAssay AID651640 (Broad Institute, 2012)
